# Most values lie at the floor of the assay. Slopes are relative: functional sequences can read slightly below zero.
# Test system: Saccharomyces cerevisiae PS128 hsf1 delta, HSF1(1-493) fusion
# Assay: growth estimate (transactivation domain function in HSF1 fusion, heat-shock survival) (a.u. (slope of normalised read count over time)); higher = stronger growth at 37°C, i.e. more transactivation activity
# Conditions: library: random library
# Method: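 Random 60-nt DNA library encoding peptides of up to 20 aa, fused to the C-terminus of yeast HSF1 residues 1-493 (C-terminal TAD deleted) and expressed from the native HSF1 promoter on a CEN plasmid in hsf1-deleted S. cerevisiae PS128. Cells were selected at 37°C on -trp 5-FOA plates for 0, 2, 4, 6 and 8 days and amplicons were sequenced. Growth estimate is the slope of a robust linear fit of total-sum-normalised read counts (normalised to the first time point) over time, using at least 2 replicates. Sequences are classed functional (TAD activity) above a threshold of -0.13, set from stop-codon control sequences.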
row,Substance,growth estimate
1,HEKRKREWPKLCLTLCRGGY,< -0.25
2,HER,< -0.25
3,HESSRPRHFVFQVYLHLKAF,< -0.25
4,HETSRSECGGHESRLDRGNN,< -0.25
5,HEVL,< -0.25
6,HEVRYVSPRDMVSKYAA,< -0.25
7,HFCLSVVAYLGRGYRPSYCA,< -0.25
8,HFESRAVL,< -0.25
9,HFHGMLGFGR,< -0.25
10,HFLDIVVSVL,< -0.25
11,HFLQ,< -0.25
12,HFMNAVNRSDGPGP,< -0.25
13,HFPHVGKWSNASCKLGIGSD,< -0.25
14,HFPNHATTFSDSLRV,< -0.25
15,HFRTFTDNEWRLKSSL,< -0.25
16,HFVYLFATSVCMKPSVRGSV,< -0.25
17,HGAELPRFGTS,< -0.25
18,HGASSRGFIGRRWLRFEAAL,< -0.25
19,HGEGC,< -0.25
20,HGGF,< -0.25
21,HGGGQIHGKFP,< -0.25
22,HGGGR,< -0.25
23,HGGSCE,< -0.25
24,HGHPRNGWTSG,< -0.25

# A second format for part of the listing above:
row | Substance | growth estimate
14 | HFPNHATTFSDSLRV | < -0.25
15 | HFRTFTDNEWRLKSSL | < -0.25
16 | HFVYLFATSVCMKPSVRGSV | < -0.25
17 | HGAELPRFGTS | < -0.25

# The list continues.

row,Substance,growth estimate
1,HGIQRDQCHPSLCVVQVLQL,< -0.25
2,HGLRPVVDSGGLALWGCGKS,-0.198
3,HGLYA,< -0.25
4,HGP,< -0.25
5,HGRHREA,< -0.25
6,HGSGDRSKQRPRRAGSNSDS,< -0.25
7,HGSGWPLSLMSRHMSPRILE,< -0.25
8,HGSLSRVYVGQVDN,< -0.25
9,HGSSDTARSARGWLCTLAPC,< -0.25
10,HGSSSPSV,< -0.25
11,HGTEYATY,< -0.25
12,HGVIGK,< -0.25
13,HHESWFSKRPASGGLPVVLT,< -0.25
14,HHKFLLNDGGQGFE,< -0.25
15,HHLMIEWWVIAVYATQAICA,< -0.25
16,HHMVKSISGESPSV,< -0.25
17,HHRCRWALN,< -0.25
18,HHSIEPGL,< -0.25
19,HHSLWSAIWGVQAGAELLFR,< -0.25
20,HHTIVGVVGSRAGYDCRPQS,< -0.25
21,HHTLGVLEGDGALTTHHLLS,< -0.25
22,HHTPCAGRNFGLAGPS,< -0.25
23,HHYKKLCNGSLCRPCPIWRG,< -0.25
24,HIDNLYKSS,< -0.25

row,Substance,growth estimate
1,HIEAGKEVVHNFVNGGEGSG,< -0.25
2,HIEGPRWMLKNNRCSIT,< -0.25
3,HIETQHSFTQ,< -0.25
4,HIGSDYTPLYCFCDHVIWG,< -0.25
5,HIILQIAAGCPRQ,< -0.25
6,HIKTALVLTP,< -0.25
7,HILH,< -0.25
8,HIQRSPGYCHYRLAGSET,< -0.25
9,HIQSPYPGSPWSLGYISL,-0.114
10,HIR,< -0.25
11,HIVPQRDSHTDVQKPWLK,< -0.25
12,HKDHQVVK,< -0.25
13,HKGEPQRYATMLYFVISGAV,< -0.25
14,HKGKSLT,< -0.25
15,HKHAK,< -0.25
16,HKLRTARRGALEHPRSE,< -0.25
17,HKQADAGFGCTTTARLAEGV,< -0.25
18,HKRCSDLLCGCGRLAQQGS,< -0.25
19,HKSQRTF,< -0.25
20,HKYFACWGFFKR,< -0.25
21,HLEINGAR,< -0.25
22,HLFSTECGRAMTMCESTGSG,< -0.25
23,HLGISGVHNVPREDLSKAES,< -0.25
24,HLGRPLKFEFLLESCGAGRR,< -0.25

row,Substance,growth estimate
1,HLIAGSRPSGRRVYMLGRRQ,< -0.25
2,HLIGV,< -0.25
3,HLLGSNTV,< -0.25
4,HLLKLNL,< -0.25
5,HLLRPIALTRIRGPYRASGA,< -0.25
6,HLLTTRIFTLSSEFRPRQPH,< -0.25
7,HLMSSANTIVAPVNMLTLGQ,< -0.25
8,HLQISTVAWTRSLRRYDTVA,< -0.25
9,HLRCGPLSAILSMRRNAACT,< -0.25
10,HLRSLSAVPTLYLHCEDILV,< -0.25
11,HLSNRRRFMAIWLGLLDRGN,< -0.25
12,HLSRGQH,< -0.25
13,HLSTSYSLSLGGACLL,< -0.25
14,HLWTCCKWGD,< -0.25
15,HLWVTAQVRAQAEP,< -0.25
16,HLYLLECVLPRPSGMA,< -0.25
17,HMDWVIN,< -0.25
18,HMEVV,< -0.25
19,HMHGPLCT,< -0.25
20,HMKQIVKSPRKPSEGKTARH,< -0.25
21,HMKVGTYHVQIC,< -0.25
22,HMLQKA,< -0.25
23,HMQFQRVLGPIVTAYWATSA,< -0.25
24,HMRPMNL,< -0.25

# From the supplement of paper PMC5949888
